# Data reported in the supplement of paper PMC12823440, “Inhibitors supercharge kinase turnover through native proteolytic circuits” (Nature, 2025).
# Protein sequences, listed by entry. Tags and fused reporters are not part of them. Lines headed by an entry give the natural chain unless they say otherwise; changes in a name come on top.
# UniProt P53671: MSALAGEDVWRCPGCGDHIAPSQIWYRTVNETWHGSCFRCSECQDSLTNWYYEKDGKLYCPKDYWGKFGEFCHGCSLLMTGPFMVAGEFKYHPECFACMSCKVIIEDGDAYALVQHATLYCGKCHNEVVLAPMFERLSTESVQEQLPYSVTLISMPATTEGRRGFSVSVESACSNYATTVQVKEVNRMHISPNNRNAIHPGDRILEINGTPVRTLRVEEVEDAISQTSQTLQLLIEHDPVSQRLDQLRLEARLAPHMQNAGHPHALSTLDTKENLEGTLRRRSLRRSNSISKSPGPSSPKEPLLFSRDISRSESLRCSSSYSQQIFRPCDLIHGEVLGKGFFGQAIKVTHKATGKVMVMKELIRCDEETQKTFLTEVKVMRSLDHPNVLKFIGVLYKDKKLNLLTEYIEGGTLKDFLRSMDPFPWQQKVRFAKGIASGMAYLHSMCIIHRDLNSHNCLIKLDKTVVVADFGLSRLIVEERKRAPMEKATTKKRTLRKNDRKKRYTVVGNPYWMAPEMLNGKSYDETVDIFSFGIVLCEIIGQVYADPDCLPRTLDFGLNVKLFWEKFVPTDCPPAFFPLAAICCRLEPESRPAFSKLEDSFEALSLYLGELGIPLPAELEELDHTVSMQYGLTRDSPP
# UniProt Q9UBF8: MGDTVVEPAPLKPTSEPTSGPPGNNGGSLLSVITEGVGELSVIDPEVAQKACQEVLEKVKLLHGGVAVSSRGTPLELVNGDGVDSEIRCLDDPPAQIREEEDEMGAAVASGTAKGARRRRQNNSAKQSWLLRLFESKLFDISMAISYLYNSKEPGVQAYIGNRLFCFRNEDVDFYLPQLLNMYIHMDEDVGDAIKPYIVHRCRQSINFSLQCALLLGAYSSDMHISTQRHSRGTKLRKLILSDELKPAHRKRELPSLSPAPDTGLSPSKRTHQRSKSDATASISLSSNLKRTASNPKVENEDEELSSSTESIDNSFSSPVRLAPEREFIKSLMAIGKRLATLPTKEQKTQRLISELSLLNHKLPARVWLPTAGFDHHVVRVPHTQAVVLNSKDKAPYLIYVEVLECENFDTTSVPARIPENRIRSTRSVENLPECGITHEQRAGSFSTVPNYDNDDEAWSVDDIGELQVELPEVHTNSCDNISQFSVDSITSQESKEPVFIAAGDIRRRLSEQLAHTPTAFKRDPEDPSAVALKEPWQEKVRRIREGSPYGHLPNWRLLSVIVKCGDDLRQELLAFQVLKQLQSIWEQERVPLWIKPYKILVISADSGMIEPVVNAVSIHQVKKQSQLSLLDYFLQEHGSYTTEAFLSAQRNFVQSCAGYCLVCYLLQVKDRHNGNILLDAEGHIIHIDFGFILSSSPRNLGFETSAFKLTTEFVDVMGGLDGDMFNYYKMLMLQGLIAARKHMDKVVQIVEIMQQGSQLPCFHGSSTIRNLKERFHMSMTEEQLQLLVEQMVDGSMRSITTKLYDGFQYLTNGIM
# UniProt O75460: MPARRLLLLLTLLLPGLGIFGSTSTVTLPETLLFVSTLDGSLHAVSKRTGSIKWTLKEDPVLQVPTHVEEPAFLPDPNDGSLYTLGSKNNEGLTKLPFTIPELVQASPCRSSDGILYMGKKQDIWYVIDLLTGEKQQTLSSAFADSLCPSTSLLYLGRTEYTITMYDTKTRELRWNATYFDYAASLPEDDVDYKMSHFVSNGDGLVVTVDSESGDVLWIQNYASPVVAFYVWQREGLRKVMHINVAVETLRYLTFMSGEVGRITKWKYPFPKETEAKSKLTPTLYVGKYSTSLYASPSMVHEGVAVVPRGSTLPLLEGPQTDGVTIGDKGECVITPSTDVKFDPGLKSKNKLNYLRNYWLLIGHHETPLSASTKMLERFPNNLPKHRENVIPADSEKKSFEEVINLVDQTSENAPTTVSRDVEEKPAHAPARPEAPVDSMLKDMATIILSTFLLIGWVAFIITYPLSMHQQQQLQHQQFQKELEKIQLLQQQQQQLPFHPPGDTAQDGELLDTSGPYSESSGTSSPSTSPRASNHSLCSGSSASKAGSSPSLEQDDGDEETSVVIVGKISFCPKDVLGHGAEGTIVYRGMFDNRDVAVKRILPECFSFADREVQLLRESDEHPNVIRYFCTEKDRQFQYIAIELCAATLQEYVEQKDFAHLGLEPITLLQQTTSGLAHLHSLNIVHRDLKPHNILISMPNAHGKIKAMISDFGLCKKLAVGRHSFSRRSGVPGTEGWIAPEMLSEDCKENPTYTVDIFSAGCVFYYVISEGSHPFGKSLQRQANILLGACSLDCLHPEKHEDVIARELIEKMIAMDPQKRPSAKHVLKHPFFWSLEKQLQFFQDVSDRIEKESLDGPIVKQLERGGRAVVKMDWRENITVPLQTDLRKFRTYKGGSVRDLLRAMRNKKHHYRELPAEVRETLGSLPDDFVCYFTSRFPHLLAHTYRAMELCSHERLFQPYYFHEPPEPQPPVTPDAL
# UniProt P11362, whole entry, looked up: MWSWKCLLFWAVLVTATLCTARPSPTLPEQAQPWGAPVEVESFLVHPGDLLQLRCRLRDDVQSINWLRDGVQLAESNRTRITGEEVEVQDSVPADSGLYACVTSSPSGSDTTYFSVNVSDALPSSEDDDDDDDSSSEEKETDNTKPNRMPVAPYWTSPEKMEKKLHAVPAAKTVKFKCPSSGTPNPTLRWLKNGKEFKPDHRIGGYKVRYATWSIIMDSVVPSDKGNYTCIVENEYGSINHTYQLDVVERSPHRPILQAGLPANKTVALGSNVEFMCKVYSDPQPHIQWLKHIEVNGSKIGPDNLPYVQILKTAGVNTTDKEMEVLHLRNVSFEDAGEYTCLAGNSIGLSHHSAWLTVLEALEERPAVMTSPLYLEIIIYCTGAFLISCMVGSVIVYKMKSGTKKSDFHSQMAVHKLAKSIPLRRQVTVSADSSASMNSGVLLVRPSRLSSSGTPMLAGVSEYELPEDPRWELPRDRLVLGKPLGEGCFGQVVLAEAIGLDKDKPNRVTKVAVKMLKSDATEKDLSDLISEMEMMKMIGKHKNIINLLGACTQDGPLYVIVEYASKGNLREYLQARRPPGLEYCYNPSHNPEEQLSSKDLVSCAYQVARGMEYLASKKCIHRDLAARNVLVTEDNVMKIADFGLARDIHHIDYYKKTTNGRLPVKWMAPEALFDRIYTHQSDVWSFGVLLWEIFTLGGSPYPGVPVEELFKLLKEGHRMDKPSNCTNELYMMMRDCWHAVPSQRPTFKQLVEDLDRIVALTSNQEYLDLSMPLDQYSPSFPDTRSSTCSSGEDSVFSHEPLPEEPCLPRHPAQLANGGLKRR
# UniProt P29597: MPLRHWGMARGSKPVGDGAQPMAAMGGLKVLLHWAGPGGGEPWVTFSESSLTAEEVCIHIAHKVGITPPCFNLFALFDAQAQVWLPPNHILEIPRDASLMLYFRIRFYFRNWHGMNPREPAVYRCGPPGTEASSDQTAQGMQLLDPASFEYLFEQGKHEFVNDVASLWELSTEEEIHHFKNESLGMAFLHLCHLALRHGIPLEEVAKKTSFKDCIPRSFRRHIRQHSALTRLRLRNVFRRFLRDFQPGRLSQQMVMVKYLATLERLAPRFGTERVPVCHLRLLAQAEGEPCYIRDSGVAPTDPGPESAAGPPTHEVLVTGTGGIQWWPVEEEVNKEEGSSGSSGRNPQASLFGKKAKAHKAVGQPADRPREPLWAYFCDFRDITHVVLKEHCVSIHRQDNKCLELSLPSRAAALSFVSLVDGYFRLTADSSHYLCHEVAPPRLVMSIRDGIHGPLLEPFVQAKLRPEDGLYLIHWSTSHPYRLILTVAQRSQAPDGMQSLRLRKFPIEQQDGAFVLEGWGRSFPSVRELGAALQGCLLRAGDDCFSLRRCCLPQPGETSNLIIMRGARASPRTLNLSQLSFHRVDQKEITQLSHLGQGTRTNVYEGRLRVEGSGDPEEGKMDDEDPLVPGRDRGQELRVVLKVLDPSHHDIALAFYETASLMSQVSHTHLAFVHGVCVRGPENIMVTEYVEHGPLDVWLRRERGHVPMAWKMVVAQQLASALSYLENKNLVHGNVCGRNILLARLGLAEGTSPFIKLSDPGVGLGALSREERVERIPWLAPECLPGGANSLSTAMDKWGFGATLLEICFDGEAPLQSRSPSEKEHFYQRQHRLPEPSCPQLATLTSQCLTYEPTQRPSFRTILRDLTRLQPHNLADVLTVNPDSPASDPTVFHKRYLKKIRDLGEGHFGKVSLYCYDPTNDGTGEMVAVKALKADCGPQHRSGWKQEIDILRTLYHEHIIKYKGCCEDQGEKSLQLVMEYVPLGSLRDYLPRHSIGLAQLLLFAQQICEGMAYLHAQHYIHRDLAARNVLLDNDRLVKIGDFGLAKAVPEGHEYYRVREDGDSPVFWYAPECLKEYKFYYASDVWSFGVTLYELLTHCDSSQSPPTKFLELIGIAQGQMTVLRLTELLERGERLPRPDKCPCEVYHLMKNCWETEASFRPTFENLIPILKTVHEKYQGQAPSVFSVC
# UniProt P31152, whole entry: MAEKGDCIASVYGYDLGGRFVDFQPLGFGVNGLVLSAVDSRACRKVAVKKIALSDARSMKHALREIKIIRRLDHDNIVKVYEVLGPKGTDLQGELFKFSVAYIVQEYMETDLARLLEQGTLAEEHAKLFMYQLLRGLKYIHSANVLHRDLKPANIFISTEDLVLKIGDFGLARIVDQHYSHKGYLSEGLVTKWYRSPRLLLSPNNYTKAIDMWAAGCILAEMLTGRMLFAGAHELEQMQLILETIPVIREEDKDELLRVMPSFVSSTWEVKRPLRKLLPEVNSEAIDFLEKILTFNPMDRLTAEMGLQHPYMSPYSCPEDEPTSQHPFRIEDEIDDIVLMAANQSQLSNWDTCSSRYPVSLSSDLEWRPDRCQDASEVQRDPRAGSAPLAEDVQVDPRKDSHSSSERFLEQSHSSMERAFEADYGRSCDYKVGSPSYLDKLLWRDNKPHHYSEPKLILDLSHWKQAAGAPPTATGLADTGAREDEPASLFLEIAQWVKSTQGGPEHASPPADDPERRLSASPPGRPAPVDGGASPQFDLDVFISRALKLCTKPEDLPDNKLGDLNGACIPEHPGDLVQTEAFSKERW
# UniProt P53667: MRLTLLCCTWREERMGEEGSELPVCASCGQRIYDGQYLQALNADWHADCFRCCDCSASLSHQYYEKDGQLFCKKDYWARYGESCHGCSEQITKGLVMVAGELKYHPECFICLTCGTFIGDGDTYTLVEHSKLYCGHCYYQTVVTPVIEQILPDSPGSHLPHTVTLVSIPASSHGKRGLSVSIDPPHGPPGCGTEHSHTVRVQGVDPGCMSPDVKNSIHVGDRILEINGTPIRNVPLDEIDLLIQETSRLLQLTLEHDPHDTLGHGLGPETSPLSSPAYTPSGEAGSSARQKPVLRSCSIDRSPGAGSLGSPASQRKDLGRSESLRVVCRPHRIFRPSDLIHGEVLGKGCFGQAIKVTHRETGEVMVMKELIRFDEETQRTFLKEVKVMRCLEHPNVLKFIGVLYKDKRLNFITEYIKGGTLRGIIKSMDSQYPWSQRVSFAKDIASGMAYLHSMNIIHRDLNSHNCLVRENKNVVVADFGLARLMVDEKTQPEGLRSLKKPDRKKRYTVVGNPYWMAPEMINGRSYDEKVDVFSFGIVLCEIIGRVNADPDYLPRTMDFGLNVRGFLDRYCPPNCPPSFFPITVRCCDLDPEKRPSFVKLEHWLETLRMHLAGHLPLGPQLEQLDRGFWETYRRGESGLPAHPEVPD
# UniProt P51813: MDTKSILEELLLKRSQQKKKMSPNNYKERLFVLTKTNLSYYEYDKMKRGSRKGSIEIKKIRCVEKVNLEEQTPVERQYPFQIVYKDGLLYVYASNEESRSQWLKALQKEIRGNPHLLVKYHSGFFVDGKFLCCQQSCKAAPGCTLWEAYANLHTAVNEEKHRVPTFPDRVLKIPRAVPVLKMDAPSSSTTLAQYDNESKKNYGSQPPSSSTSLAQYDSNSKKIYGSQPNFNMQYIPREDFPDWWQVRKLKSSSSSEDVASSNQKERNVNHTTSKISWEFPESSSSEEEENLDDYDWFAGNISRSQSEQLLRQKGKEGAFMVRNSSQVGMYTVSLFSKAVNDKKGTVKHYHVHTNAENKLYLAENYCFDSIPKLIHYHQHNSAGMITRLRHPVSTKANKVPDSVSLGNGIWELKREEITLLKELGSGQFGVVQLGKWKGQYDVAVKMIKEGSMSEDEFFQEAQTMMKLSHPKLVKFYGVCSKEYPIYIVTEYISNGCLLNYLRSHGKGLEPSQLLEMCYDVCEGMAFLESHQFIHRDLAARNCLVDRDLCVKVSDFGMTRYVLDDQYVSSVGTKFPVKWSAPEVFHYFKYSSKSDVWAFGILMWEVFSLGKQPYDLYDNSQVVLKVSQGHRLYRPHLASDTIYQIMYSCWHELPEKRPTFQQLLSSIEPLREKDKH
# The list shows a part of the results. The calls rarely recur for the same compound in another form.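 Kinases, fused to nanoluciferase, were expressed in K562 cells; luminescence was measured every 4 h from 2 to 18 h as percent of control (DMSO = 100%, positive control = 0%). A time point is decreased if signal falls significantly (2 sigma). Hits were called by the authors by a rule that is not shown; the count of time points alone does not decide it.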
# Compound: C#Cc1cccc(Nc2ncnc3cc(OCCOC)c(OCCO)cc23)c1 [Desmethyl Erlotinib (hydrochloride)]
# Assay: number of time points (of 5) at which kinase-Nluc abundance scored as decreased, DMSO-normalised (count); higher = more persistent destabilization
# Settings: 10 µM; K562; 2-18 h
row,Target,number of time points
1,PTK2 (UniProt Q05397),1
2,RAF1_S257L (clone: RAF1_mut) (UniProt P04049),1
3,CSNK1A1 (UniProt P48729),0
4,LIMK2 (UniProt P53671),0
5,PIK4CB (UniProt Q9UBF8),0
6,HER2 (UniProt P04626),5
7,PTK2B (UniProt Q14289),0
8,AKT1 (UniProt P31749),0
9,NTRK3 (UniProt Q16288),0
10,MAPK1 (UniProt P28482),0
11,RIPK2 (UniProt O43353),3
12,AURKB (UniProt Q96GD4),0
13,ERN1 (UniProt O75460),0
14,CSNK1D (UniProt P48730),0
15,ROR2 (UniProt Q01974),0
16,FGFR1 (UniProt P11362),0

row,Target,number of time points
1,STK38 (UniProt Q15208),0
2,CDK6 (UniProt Q00534),0
3,SYK (UniProt P43405),0
4,PDGFRB (UniProt P09619),0
5,MAP2K1 (UniProt Q02750),0
6,TYK2 (UniProt P29597),5
7,RIOK1 (UniProt Q9BRS2),0
8,SPHK1 (UniProt Q9NYA1),0
9,MAPK4 (UniProt P31152),0
10,CDK10 (UniProt Q15131),0
11,MAP2K2 (UniProt P36507),0
12,LIMK1 (UniProt P53667),0
13,PDPK1 (UniProt O15530),0
14,PAK4 (UniProt O96013),0
15,BMX (UniProt P51813),5

# Compound: C#Cc1cccc(Nc2ncnc3cc(OCCOC)c(OCCO)cc23)c1 [Desmethyl Erlotinib]
# Assay: as above
# Settings: 10 µM; K562; 2-18 h
row,Target,number of time points
1,PTK2 (UniProt Q05397),0
2,RAF1_S257L (clone: RAF1_mut) (UniProt P04049),1
3,CSNK1A1 (UniProt P48729),0
4,LIMK2 (UniProt P53671),0
5,PIK4CB (UniProt Q9UBF8),0
6,HER2 (UniProt P04626),0
7,PTK2B (UniProt Q14289),0
8,AKT1 (UniProt P31749),0
9,NTRK3 (UniProt Q16288),0
10,MAPK1 (UniProt P28482),0
11,RIPK2 (UniProt O43353),0
12,AURKB (UniProt Q96GD4),0
13,ERN1 (UniProt O75460),0
14,CSNK1D (UniProt P48730),0
15,ROR2 (UniProt Q01974),0
16,FGFR1 (UniProt P11362),0

row,Target,number of time points
1,STK38 (UniProt Q15208),0
2,CDK6 (UniProt Q00534),0
3,SYK (UniProt P43405),0
4,PDGFRB (UniProt P09619),0
5,MAP2K1 (UniProt Q02750),0
6,TYK2 (UniProt P29597),0
7,RIOK1 (UniProt Q9BRS2),0
8,SPHK1 (UniProt Q9NYA1),0
9,MAPK4 (UniProt P31152),0
10,CDK10 (UniProt Q15131),0
11,MAP2K2 (UniProt P36507),0
12,LIMK1 (UniProt P53667),0
13,PDPK1 (UniProt O15530),0
14,PAK4 (UniProt O96013),0
15,BMX (UniProt P51813),0

# Compound: C#Cc1cccc(Nc2ncnc3cc(OCCOC)c(OCCOC)cc23)c1 [Erlotinib (Hydrochloride)]
# Assay: as above
# Settings: 10 µM; K562; 2-18 h
row,Target,number of time points
1,PTK2 (UniProt Q05397),0
2,RAF1_S257L (clone: RAF1_mut) (UniProt P04049),0
3,CSNK1A1 (UniProt P48729),0
4,LIMK2 (UniProt P53671),0
5,PIK4CB (UniProt Q9UBF8),0
6,HER2 (UniProt P04626),0
7,PTK2B (UniProt Q14289),0
8,AKT1 (UniProt P31749),0
9,NTRK3 (UniProt Q16288),0
10,MAPK1 (UniProt P28482),0
11,RIPK2 (UniProt O43353),0
12,AURKB (UniProt Q96GD4),0
13,ERN1 (UniProt O75460),0
14,CSNK1D (UniProt P48730),0
15,ROR2 (UniProt Q01974),0
16,FGFR1 (UniProt P11362),0

row,Target,number of time points
1,STK38 (UniProt Q15208),0
2,CDK6 (UniProt Q00534),0
3,SYK (UniProt P43405),0
4,PDGFRB (UniProt P09619),0
5,MAP2K1 (UniProt Q02750),0
6,TYK2 (UniProt P29597),0
7,RIOK1 (UniProt Q9BRS2),0
8,SPHK1 (UniProt Q9NYA1),0
9,MAPK4 (UniProt P31152),0
10,CDK10 (UniProt Q15131),0
11,MAP2K2 (UniProt P36507),0
12,LIMK1 (UniProt P53667),0
13,PDPK1 (UniProt O15530),0
14,PAK4 (UniProt O96013),0
15,BMX (UniProt P51813),0
